Test results: the supplement of paper PMC10849652
This is one part of the list.

Amino acid sequences for entries named in this document (tags omitted). A change or cut given only in a name is not applied to a line headed by its entry.
UniProt O60264, whole entry, looked up: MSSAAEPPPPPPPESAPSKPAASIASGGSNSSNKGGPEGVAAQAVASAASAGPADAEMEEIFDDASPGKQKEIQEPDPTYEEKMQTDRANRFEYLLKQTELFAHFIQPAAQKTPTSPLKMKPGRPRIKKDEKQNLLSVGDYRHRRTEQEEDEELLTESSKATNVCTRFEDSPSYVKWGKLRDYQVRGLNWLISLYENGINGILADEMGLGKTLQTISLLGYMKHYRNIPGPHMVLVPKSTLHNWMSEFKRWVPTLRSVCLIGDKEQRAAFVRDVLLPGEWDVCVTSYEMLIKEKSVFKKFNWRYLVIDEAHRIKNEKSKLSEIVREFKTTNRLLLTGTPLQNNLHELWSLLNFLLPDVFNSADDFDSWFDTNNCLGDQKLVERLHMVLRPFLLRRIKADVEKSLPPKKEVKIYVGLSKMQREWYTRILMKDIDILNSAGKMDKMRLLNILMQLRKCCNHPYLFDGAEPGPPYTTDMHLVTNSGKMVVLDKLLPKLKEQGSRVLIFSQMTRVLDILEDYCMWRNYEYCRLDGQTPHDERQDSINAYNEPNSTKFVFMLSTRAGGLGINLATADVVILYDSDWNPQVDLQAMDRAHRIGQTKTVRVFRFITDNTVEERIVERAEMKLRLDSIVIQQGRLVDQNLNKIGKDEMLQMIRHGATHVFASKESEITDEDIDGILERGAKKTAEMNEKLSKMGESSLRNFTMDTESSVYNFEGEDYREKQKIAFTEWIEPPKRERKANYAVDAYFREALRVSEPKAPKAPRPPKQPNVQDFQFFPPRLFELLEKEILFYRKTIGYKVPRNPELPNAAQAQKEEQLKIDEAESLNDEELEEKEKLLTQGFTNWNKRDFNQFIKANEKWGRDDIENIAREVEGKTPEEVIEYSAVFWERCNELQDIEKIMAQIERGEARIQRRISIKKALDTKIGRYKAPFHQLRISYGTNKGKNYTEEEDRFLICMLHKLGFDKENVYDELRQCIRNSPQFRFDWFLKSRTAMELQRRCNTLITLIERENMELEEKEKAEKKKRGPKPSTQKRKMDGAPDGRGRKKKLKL
UniProt P51532, whole entry, looked up: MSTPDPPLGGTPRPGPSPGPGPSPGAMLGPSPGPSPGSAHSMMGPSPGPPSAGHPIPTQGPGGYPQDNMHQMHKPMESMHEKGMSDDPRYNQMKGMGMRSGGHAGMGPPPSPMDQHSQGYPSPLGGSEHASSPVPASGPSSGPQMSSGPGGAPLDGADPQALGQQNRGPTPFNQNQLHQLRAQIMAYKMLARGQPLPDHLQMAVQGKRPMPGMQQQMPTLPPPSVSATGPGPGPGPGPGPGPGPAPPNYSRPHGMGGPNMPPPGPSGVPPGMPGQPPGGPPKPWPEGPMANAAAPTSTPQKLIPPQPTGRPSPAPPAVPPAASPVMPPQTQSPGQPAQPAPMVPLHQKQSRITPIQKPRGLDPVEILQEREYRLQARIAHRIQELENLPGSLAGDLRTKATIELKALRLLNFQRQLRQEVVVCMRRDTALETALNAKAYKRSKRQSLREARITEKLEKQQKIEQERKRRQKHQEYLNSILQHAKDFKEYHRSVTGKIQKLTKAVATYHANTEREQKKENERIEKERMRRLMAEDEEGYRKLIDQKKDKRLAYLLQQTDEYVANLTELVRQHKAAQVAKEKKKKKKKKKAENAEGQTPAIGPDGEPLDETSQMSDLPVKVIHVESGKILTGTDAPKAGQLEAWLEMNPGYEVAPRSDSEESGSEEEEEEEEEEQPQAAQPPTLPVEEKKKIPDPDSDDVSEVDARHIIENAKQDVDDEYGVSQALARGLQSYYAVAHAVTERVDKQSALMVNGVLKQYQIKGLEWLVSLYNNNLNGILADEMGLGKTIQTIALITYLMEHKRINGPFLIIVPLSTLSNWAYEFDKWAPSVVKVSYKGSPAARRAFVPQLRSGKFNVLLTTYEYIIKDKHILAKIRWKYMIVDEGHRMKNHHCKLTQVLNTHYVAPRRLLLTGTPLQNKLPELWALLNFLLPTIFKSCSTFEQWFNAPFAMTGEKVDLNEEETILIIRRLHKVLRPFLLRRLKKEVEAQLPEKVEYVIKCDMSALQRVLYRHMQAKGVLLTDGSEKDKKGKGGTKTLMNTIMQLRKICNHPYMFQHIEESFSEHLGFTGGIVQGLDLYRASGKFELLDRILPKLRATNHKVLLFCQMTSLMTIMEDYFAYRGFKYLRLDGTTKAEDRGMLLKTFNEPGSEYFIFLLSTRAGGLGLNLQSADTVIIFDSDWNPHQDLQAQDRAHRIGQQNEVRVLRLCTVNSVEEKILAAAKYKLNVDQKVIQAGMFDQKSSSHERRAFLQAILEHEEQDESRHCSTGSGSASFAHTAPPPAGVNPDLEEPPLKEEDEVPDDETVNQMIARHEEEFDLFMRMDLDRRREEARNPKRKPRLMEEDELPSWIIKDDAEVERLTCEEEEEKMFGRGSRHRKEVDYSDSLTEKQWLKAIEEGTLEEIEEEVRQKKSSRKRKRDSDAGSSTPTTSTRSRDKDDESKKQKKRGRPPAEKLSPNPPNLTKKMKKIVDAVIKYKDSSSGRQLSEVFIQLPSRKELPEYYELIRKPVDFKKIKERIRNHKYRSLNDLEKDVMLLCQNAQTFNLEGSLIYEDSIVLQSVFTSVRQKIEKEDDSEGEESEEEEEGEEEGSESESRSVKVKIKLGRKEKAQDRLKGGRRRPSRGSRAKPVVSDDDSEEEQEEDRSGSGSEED
UniProt Q92966: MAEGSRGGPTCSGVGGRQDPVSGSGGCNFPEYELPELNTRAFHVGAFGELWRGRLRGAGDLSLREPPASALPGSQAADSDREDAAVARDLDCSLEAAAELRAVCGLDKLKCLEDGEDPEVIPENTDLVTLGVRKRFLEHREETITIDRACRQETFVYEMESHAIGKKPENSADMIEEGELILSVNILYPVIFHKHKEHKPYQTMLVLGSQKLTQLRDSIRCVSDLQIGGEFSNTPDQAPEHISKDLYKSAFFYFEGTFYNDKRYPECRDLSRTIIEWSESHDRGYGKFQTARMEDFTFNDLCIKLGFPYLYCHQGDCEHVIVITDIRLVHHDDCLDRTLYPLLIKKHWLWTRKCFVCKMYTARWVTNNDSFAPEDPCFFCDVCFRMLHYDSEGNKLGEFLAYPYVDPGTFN
UniProt Q92485: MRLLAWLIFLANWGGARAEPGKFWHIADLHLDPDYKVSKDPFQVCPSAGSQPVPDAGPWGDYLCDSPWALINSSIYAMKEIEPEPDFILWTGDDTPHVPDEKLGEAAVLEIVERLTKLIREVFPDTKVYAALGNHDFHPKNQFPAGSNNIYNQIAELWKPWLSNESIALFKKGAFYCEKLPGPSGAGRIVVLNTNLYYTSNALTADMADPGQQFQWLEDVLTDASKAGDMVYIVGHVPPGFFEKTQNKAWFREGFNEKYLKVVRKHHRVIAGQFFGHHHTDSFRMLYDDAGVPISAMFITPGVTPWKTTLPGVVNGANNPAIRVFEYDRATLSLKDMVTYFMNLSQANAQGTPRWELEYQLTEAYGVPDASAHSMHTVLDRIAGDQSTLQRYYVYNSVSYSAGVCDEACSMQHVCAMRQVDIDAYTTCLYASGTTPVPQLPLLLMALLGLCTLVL
UniProt P08294: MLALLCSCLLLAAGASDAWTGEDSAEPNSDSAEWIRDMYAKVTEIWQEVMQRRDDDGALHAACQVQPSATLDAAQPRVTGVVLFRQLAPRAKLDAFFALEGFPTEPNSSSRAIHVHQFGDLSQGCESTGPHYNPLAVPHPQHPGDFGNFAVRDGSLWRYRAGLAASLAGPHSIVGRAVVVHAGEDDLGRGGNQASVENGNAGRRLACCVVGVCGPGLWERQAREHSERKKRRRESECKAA
UniProt O00161: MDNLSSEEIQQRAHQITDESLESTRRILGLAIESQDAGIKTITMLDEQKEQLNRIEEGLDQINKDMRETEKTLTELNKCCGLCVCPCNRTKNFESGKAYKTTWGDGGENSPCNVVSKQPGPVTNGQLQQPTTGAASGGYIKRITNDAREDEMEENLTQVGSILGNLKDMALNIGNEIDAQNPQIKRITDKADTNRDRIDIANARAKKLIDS
UniProt Q9Y343: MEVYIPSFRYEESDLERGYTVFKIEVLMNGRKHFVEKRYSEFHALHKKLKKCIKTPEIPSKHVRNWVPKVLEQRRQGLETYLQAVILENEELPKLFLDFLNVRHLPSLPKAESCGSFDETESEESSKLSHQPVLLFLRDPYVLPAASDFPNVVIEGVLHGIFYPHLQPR
UniProt Q9NWM0: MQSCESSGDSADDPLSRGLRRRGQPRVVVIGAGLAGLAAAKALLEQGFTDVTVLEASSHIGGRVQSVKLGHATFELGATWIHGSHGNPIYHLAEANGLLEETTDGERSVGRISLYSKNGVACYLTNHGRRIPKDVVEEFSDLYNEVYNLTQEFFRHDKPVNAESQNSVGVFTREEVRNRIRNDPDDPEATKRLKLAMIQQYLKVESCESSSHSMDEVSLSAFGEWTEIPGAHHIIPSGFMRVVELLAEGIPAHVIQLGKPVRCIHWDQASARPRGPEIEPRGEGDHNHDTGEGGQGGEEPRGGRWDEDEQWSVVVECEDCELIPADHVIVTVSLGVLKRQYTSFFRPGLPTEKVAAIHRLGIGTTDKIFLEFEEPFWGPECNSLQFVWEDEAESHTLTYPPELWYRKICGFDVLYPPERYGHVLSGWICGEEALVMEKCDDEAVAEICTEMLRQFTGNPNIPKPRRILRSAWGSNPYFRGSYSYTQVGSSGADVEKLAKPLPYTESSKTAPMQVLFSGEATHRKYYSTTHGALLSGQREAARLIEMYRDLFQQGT
UniProt B2RUZ4: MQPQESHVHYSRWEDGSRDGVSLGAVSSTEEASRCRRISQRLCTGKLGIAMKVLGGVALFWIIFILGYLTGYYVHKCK
UniProt P35716: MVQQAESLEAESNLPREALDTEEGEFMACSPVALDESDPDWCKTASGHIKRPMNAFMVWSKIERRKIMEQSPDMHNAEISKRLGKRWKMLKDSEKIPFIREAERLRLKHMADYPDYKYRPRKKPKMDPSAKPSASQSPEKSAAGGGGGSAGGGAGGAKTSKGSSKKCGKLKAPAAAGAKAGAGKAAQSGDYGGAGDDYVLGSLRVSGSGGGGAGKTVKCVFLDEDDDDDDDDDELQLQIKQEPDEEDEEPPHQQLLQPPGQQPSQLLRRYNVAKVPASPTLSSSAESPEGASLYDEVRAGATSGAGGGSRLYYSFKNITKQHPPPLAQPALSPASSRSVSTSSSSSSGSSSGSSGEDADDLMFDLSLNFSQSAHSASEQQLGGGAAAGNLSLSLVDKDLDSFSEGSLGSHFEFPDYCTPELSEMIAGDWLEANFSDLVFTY
UniProt Q3SY56: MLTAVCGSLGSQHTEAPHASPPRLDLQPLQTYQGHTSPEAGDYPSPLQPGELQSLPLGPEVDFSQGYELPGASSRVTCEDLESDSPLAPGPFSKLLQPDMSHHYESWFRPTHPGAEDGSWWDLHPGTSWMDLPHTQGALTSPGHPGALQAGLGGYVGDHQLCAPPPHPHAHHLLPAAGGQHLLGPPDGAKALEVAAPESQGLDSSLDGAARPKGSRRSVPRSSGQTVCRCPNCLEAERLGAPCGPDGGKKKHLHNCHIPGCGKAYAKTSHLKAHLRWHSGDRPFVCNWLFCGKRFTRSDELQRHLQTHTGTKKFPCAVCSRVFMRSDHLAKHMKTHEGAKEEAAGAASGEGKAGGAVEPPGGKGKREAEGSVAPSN

Experiments:
Assay in all cases: log2 fold change, soluble protein after heating vs DMSO (PISA); higher = thermal stabilisation; K562 lysate, 10 uM; active = over 0.2 and 3.5 SD of the protein, either way, in both replicates (recomputed)
lapatinib = compound: CS(=O)(=O)CCNCc1ccc(-c2ccc3ncnc(Nc4ccc(OCc5cccc(F)c5)c(Cl)c4)c3c2)o1 [lapatinib]
In short: (§1)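 Values give the log-two fold change in thermal stability against solvent controls, from duplicates. Crude K562 extract at 1 mg/mL protein, made by dounce homogenisation in PBS pH 7.4 with 1 mM MgCl2, was treated with 10 μM compound for 30 min. After 3 min heating across 48°C-58°C, aliquots were pooled, adjusted to 0.5% NP-40 at 4°C and centrifuged at 21,000xg for 90 min. The supernatant was measured by TMTpro 16plex LC-MS/MS with channel sums equalised.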

pictilisib = compound: CS(=O)(=O)N1CCN(Cc2cc3nc(-c4cccc5[nH]ncc45)nc(N4CCOCC4)c3s2)CC1 [pictilisib]
In short: as §1

crizotinib = compound: C[C@@H](Oc1cc(-c2cnn(C3CCNCC3)c2)cnc1N)c1c(Cl)ccc(F)c1Cl [crizotinib]
In short: as §1

[1] = compound: C[C@H](C1=CC=C(C=C1)C(=O)NC2=C3C=CNC3=NC=C2)N
In short: as §1

duvelisib = compound: C[C@H](Nc1ncnc2nc[nH]c12)c1cc2cccc(Cl)c2c(=O)n1-c1ccccc1 [duvelisib]
In short: as §1

gandotinib = compound: Cc1cc(Nc2cc(CN3CCOCC3)c3nc(C)c(Cc4ccc(Cl)cc4F)n3n2)n[nH]1 [gandotinib]
In short: as §1

tozasertib = compound: Cc1cc(Nc2cc(N3CCN(C)CC3)nc(Sc3ccc(NC(=O)C4CC4)cc3)n2)n[nH]1 [tozasertib]
In short: as §1

doramapimod = compound: Cc1ccc(-n2nc(C(C)(C)C)cc2NC(=O)Nc2ccc(OCCN3CCOCC3)c3ccccc23)cc1 [doramapimod]
In short: as §1

bafetinib = compound: Cc1ccc(NC(=O)c2ccc(CN3CC[C@H](N(C)C)C3)c(C(F)(F)F)c2)cc1Nc1nccc(-c2cncnc2)n1 [bafetinib]
In short: as §1

[2] = compound: Cc1cccc(CC(=O)N2CCc3c2ccc(-c2cn(C)c4ncnc(N)c24)c3F)n1
In short: as §1

nilotinib = compound: Cc1cn(-c2cc(NC(=O)c3ccc(C)c(Nc4nccc(-c5cccnc5)n4)c3)cc(C(F)(F)F)c2)cn1 [nilotinib]
In short: as §1

[3] = compound: Cc1nc(Nc2n[nH]c3c2CN(C(=O)N[C@H](CN(C)C)c2ccccc2)C3(C)C)c2sccc2n1
In short: as §1

dasatinib = compound: Cc1nc(Nc2ncc(C(=O)Nc3c(C)cccc3Cl)s2)cc(N2CCN(CCO)CC2)n1 [dasatinib]
In short: as §1

[4] = compound: Cc1ncc(-c2ccnc(Nc3ccc(S(C)(=O)=O)cc3)n2)n1C(C)C
In short: as §1

[5] = compound: Cn1cc(-c2ccc3c(c2)CCN3C(=O)Cc2cccc(C(F)(F)F)c2)c2c(N)ncnc21
In short: as §1

quisinostat = compound: Cn1cc(CNCC2CCN(c3ncc(C(=O)NO)cn3)CC2)c2ccccc21 [quisinostat]
In short: as §1

tipifarnib = compound: Cn1cncc1[C@@](N)(c1ccc(Cl)cc1)c1ccc2c(c1)c(-c1cccc(Cl)c1)cc(=O)n2C [tipifarnib]
In short: as §1

[6] = compound: NC(=O)Nc1cc(-c2cccc(F)c2)sc1C(=O)N[C@H]1CCCNC1
In short: as §1

[7] = compound: NC(=O)c1cnc(N[C@@H]2CCCC[C@@H]2N)nc1Nc1cccc(-n2nccn2)c1
In short: as §1

[8] = compound: NC1(c2ccc(-c3nc4ccn5c(=O)[nH]nc5c4cc3-c3ccccc3)cc2)CCC1
In short: as §1

Target	log2 fold change (lapatinib)	log2 fold change (pictilisib)	log2 fold change (crizotinib)	log2 fold change [1]	log2 fold change (duvelisib)	log2 fold change (gandotinib)	log2 fold change (tozasertib)	log2 fold change (doramapimod)	log2 fold change (bafetinib)	log2 fold change [2]	log2 fold change (nilotinib)	log2 fold change [3]	log2 fold change (dasatinib)	log2 fold change [4]	log2 fold change [5]	log2 fold change (quisinostat)	log2 fold change (tipifarnib)	log2 fold change [6]	log2 fold change [7]	log2 fold change [8]
SMARCA5 (UniProt O60264)	inactive: -0.022	inactive: -0.041	inactive: 0.009	inactive: -0.016	inactive: 0.053	inactive: -0.066	inactive: 0.011	inactive: -0.009	inactive: -0.067	inactive: 0.026	inactive: -0.059	inactive: 0.03	inactive: -0.107	inactive: 0.006	inactive: 0.067	inactive: 0.024	inactive: -0.003	inactive: 0.034	inactive: 0.015	inactive: -0.01
SMARCA4 isoform 4 (UniProt P51532)	inactive: -0.072		inactive: 0	inactive: 0.024	inactive: -0.068	inactive: -0.007	inactive: 0.136	inactive: -0.048		inactive: -0.012	inactive: -0.244	inactive: -0.219	inactive: -0.037	inactive: 0.037	inactive: 0.035	inactive: -0.081	inactive: 0.239	inactive: 0.16	inactive: -0.042	inactive: 0.05
SNAPC3 (UniProt Q92966)		inactive: 0.146	inactive: 0.085	inactive: -0.056	inactive: -0.033	inactive: -0.098	inactive: 0.133	inactive: -0.036	inactive: -0.059	inactive: 0.059	inactive: -0.035	inactive: -0.053	inactive: -0.049	inactive: 0.042	inactive: -0.105	inactive: -0.053	inactive: -0.044	inactive: 0.081		inactive: 0.094
SMPDL3B (UniProt Q92485)	inactive: 0.09		inactive: 0.003	inactive: -0.326	inactive: 0.083	inactive: -0.196	inactive: -0.067	inactive: -0.115		inactive: 0.004			inactive: -0.034		inactive: 0.206	inactive: 0.055		inactive: -0.075	inactive: 0.037	
SOD3 (UniProt P08294)	inactive: -0.242	inactive: -0.019		inactive: 0.003		inactive: 0.071	inactive: 0.084		inactive: 0.336	inactive: 0.14									inactive: 0.196	
SNAP23 isoform 2 (UniProt O00161)	inactive: 0.075			inactive: 0.188		inactive: -0.054	inactive: -0.185			inactive: -0.163	inactive: 0.011	inactive: -0.041		inactive: -0.054			inactive: -0.016		inactive: 0.046	inactive: -0.116
SNX24 (UniProt Q9Y343)		inactive: -0.142	inactive: 0.006	inactive: -0.01	inactive: -0.052	inactive: -0.045	inactive: -0.006	inactive: 0.047	inactive: -0.061	inactive: 0.075	inactive: -0.031	inactive: -0.028	inactive: 0.003	inactive: -0.041	inactive: -0.027	inactive: 0.128	inactive: -0.017	inactive: -0.025		inactive: 0.028
SMOX isoform 6 (UniProt Q9NWM0)	inactive: 0.22				inactive: -0.104								inactive: 0.1		inactive: -0.084				inactive: -0.058	inactive: 0.009
SMIM1 (UniProt B2RUZ4)	inactive: 0.098	inactive: -0.028	inactive: -0.106	inactive: 0.121		inactive: 0.106	inactive: -0.019	inactive: 0.034	inactive: -0.021	inactive: 0.011	inactive: 0.056	inactive: 0.05		inactive: 0.195		inactive: 0.168	inactive: 0.039	inactive: -0.055	inactive: -0.188	active: -0.418
SOX11 (UniProt P35716)	inactive: -0.118		inactive: 0.006					inactive: -0.243								inactive: -0.011		inactive: -0.154	inactive: -0.217	
SP6 (UniProt Q3SY56)	inactive: 0.06		inactive: -0.049	inactive: -0.317	inactive: -0.033	inactive: -0.092	inactive: 0.018	inactive: -0.026		inactive: 0.21	inactive: 0.464	inactive: 0.058	inactive: 0.094	inactive: 0.077	inactive: -0.077	inactive: -0.01	inactive: -0.16	inactive: 0.042	inactive: -0.054	inactive: 0.064
SMU1 isoform 2 (UniProt Q2TAY7)	inactive: -0.063	inactive: -0.057		inactive: -0.63		inactive: 0.202	inactive: 0.039		inactive: -0.292	inactive: 0.369	inactive: -0.126	inactive: 0.068		inactive: 0.185			inactive: -0.044		inactive: 0.075	inactive: -0.081

2 neighbouring entries from above:
Target	log2 fold change (lapatinib)	log2 fold change (pictilisib)	log2 fold change (crizotinib)	log2 fold change [1]	log2 fold change (duvelisib)	log2 fold change (gandotinib)	log2 fold change (tozasertib)	log2 fold change (doramapimod)	log2 fold change (bafetinib)	log2 fold change [2]	log2 fold change (nilotinib)	log2 fold change [3]	log2 fold change (dasatinib)	log2 fold change [4]	log2 fold change [5]	log2 fold change (quisinostat)	log2 fold change (tipifarnib)	log2 fold change [6]	log2 fold change [7]	log2 fold change [8]
SNAP23 isoform 2 (UniProt O00161)	inactive: 0.075			inactive: 0.188		inactive: -0.054	inactive: -0.185			inactive: -0.163	inactive: 0.011	inactive: -0.041		inactive: -0.054			inactive: -0.016		inactive: 0.046	inactive: -0.116
SNX24 (UniProt Q9Y343)		inactive: -0.142	inactive: 0.006	inactive: -0.01	inactive: -0.052	inactive: -0.045	inactive: -0.006	inactive: 0.047	inactive: -0.061	inactive: 0.075	inactive: -0.031	inactive: -0.028	inactive: 0.003	inactive: -0.041	inactive: -0.027	inactive: 0.128	inactive: -0.017	inactive: -0.025		inactive: 0.028
